This is an account of results in the supplement of paper PMC12819154, “High-throughput peptide-centric local stability assay extends protein–ligand identification to membrane proteins, tissues and bacteria” (Nature Structural & Molecular Biology, 2025).

Protein sequences, listed by entry. Tags and fused reporters are not part of them. Lines headed by an entry give the natural chain unless they say otherwise; changes in a name come on top.
UniProt Q9P000, whole entry: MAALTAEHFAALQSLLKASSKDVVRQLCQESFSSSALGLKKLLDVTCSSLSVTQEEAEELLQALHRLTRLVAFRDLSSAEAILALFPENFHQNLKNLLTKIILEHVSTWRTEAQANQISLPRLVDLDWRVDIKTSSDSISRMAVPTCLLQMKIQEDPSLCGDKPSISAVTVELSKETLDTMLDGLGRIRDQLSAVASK
UniProt Q9NZV7: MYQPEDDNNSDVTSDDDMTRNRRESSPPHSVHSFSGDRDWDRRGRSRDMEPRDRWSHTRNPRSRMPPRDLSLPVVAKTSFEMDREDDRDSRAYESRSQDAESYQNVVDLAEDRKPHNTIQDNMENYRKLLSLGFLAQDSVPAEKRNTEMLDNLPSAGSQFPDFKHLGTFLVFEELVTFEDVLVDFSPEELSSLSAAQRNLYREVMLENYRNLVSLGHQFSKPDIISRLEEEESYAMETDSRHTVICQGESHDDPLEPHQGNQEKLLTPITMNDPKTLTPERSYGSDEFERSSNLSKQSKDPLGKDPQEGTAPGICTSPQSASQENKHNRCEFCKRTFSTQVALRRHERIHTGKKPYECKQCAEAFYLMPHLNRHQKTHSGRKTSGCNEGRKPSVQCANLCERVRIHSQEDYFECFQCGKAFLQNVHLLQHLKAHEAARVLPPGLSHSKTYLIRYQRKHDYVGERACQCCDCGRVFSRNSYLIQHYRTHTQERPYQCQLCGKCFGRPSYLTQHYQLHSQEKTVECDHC
UniProt Q9NYZ3: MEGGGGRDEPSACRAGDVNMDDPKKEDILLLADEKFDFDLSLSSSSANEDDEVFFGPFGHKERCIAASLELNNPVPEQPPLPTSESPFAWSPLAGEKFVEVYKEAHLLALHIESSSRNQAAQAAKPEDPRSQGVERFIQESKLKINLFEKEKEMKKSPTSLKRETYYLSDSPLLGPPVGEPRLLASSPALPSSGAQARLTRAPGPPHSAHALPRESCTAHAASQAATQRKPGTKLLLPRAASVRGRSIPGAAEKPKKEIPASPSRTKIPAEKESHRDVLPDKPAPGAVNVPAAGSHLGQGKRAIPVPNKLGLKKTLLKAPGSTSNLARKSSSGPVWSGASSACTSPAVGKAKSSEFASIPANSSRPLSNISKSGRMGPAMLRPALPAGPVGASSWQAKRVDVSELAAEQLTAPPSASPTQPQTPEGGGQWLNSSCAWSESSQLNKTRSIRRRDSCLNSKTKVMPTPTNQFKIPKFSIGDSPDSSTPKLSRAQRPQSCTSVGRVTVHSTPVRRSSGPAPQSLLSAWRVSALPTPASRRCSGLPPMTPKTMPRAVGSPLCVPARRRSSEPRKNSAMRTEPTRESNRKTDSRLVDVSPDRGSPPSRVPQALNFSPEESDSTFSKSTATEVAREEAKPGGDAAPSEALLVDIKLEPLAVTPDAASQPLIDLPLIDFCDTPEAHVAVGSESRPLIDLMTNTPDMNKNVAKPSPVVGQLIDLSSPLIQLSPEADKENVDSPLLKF
UniProt Q9P2N6: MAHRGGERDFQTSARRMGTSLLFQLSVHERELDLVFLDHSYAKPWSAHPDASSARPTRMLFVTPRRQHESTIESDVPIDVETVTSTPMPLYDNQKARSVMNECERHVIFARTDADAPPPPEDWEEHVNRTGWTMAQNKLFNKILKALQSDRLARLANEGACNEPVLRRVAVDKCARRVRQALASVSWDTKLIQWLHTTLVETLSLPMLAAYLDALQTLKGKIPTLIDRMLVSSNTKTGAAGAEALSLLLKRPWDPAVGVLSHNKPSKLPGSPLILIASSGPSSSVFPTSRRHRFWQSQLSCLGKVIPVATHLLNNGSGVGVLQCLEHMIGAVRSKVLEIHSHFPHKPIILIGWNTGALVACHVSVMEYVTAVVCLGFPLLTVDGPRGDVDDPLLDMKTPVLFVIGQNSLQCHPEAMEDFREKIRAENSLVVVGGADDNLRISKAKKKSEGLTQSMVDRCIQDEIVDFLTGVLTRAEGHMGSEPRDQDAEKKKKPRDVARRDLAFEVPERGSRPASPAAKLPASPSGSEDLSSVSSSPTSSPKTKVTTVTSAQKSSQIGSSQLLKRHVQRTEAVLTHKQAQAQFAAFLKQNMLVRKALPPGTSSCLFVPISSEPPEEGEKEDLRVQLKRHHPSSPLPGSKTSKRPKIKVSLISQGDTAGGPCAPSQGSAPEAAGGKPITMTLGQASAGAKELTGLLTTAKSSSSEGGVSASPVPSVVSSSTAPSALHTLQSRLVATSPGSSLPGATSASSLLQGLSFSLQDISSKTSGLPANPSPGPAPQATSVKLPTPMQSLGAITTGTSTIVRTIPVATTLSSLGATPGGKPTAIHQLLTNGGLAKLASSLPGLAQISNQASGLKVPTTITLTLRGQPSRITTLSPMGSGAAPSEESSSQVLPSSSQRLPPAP
UniProt Q9NYY8: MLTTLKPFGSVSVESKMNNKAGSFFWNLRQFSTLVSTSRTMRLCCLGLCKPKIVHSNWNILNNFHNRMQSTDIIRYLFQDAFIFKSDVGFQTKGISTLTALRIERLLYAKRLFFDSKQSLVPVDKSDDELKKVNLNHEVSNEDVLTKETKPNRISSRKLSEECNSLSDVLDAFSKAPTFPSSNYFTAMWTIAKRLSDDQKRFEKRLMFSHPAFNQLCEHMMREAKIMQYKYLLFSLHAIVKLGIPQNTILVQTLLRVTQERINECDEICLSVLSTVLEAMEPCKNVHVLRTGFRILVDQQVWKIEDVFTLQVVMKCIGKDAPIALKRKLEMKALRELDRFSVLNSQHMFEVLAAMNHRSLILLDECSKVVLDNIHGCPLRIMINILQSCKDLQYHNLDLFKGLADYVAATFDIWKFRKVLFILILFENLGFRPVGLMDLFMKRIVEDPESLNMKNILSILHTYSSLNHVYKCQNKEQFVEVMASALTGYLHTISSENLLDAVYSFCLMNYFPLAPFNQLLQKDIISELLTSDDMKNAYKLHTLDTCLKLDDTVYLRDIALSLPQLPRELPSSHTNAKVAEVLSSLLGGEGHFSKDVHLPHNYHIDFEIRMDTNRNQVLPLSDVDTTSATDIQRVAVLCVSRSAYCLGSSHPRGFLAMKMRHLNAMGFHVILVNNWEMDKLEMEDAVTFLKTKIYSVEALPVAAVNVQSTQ
UniProt Q9UGC7: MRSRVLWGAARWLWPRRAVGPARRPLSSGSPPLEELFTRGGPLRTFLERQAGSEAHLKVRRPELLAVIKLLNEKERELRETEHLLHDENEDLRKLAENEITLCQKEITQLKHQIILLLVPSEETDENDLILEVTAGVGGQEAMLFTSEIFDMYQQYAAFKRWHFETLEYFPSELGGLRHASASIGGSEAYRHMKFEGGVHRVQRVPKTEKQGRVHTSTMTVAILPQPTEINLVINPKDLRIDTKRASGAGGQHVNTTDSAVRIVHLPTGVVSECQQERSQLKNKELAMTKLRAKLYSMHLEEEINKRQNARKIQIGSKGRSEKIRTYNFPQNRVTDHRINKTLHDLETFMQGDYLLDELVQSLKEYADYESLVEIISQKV
UniProt Q9UBU9: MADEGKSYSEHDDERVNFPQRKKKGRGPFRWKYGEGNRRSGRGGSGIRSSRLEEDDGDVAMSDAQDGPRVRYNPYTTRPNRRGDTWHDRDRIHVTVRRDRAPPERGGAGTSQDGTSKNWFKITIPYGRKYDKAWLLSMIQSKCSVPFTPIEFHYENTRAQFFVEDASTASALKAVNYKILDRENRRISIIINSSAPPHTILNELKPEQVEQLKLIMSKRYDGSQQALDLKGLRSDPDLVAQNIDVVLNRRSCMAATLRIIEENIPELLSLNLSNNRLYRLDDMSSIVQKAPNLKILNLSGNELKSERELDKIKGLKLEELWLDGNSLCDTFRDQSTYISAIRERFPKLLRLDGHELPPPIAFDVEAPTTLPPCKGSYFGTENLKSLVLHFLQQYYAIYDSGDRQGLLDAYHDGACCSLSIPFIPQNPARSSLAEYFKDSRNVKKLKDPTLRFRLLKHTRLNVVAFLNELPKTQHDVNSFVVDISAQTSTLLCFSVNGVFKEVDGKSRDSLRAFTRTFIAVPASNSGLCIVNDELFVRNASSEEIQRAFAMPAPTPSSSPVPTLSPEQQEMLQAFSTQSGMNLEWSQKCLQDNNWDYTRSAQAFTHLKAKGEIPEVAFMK
UniProt Q9UH62: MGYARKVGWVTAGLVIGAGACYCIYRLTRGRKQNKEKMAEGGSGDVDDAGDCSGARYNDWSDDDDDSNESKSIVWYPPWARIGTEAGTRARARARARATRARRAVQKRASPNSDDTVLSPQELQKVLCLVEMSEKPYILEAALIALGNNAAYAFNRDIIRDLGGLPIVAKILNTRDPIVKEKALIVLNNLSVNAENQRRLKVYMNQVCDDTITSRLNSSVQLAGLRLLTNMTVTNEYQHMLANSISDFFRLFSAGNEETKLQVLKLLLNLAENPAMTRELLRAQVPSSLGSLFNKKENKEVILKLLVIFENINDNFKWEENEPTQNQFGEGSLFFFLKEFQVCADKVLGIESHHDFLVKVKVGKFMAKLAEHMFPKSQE
UniProt Q9P021, whole entry: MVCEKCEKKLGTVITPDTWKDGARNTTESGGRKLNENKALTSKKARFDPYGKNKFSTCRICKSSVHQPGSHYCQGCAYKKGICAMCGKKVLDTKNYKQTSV

The list shows a part of the results. Most values lie at the level of the controls, where differences are scatter.

Compound in this experiment: Cc1nc(Nc2ncc(C(=O)Nc3c(C)cccc3Cl)s2)cc(N2CCN(CCO)CC2)n1 [dasatinib]
Kind of experiment: log2 fold change of tryptic peptide abundance, ligand vs vehicle (limited proteolysis) (log2 ratio); higher = more trypsin-susceptible (destabilized). To be noted: ligand concentration: 5 uM; sample: K562 cleared lysate.

Regarding “COMMD9 (peptide sequence: MAVPTCLLQMK, peptide start residue: 142) (UniProt Q9P000)”, the log2 fold change was 0.117.

With “UniProt Q9NZV7 (peptide sequence: EVMLENYR, peptide start residue: 51)”, the log2 fold change was -0.0114.

As to “GTSE1 (peptide sequence: AVGSPLCVPAR, peptide start residue: 533) (UniProt Q9NYZ3)”, the log2 fold change is -0.182.

In the case of “MRPL16 (peptide sequence: NMFAIWR, peptide start residue: 117) (UniProt Q9NX20)”, the log2 fold change was -0.145.

For the target “UniProt Q9P2N6 (peptide sequence: KKSEGLTQSMVDR, peptide start residue: 446)”, the log2 fold change was -0.496.

Take “FASTKD2 (peptide sequence: QSLVPVDKSDDELK, peptide start residue: 118) (UniProt Q9NYY8)”: the log2 fold change is -0.373.

In the case of “MTRF1L (peptide sequence: LYSMHLEEEINKR, peptide start residue: 295) (UniProt Q9UGC7)”, the log2 fold change was -0.134.

With “NXF1 (peptide sequence: AKGEIPEVAFMK, peptide start residue: 608) (UniProt Q9UBU9)”, the log2 fold change was 0.691.

For the target “UniProt Q9UHA3 (peptide sequence: ELTVDNSFEFEKR, peptide start residue: 62)”, the log2 fold change is 0.104.

Turning to “ARMCX3 (peptide sequence: DIIRDLGGLPIVAK, peptide start residue: 157) (UniProt Q9UH62)”, the log2 fold change was -0.589.

“CRIPT (peptide sequence: SSVHQPGSHYCQGCAYKK, peptide start residue: 63) (UniProt Q9P021)”: the log2 fold change is 0.717.
